One sequence from ChEMBL document CHEMBL1147899, “Raman, FT-IR, NMR spectroscopic data and antimicrobial activity of bis[micro2-(benzimidazol-2-yl)-2-ethanethiolato-N,S,S-chloro-palladium(II)] dimer, [(micro2-CH2CH2NHNCC6H4)PdCl]2.C2H5OH complex” (2007) can be followed below.

This test deals with Candida albicans. Put plainly: Antifungal activity against Candida albicans ATCC 10231 at 100 ug after 72 hrs by disk diffusion method. The test is classed as functional, organism-based.

Turning to NYSTATIN, the inhibition zone (IZ) is 20 mm.
